{"source": "paper PMC10232437", "about": "(Scientific Reports, 2023)", "target": "mixed lineage kinase domain-like protein (mouse (endogenous in substantia nigra of C57BL/6 mice)) (UniProt Q9D2Y4)", "assay": "western blot with conformation-sensitive A11 antibody; SN tissue of control, MPTP/probenecid and NSA-treated mice; A11 antibody specifically recognizing oligomeric proteins", "note": "No constants are given. Whether binding was seen depends on the method and setting. Some results given as binding are weak or reduced against the parent protein; the word gives no strength.", "data": [{"binder": "mixed lineage kinase domain-like protein (natural protein, UniProt Q9D2Y4 1-472, looked up, mixed lineage kinase domain-like protein (MLKL), mouse, endogenous in the substantia nigra of C57BL/6 mice; Seen as a tetramer band in the insoluble fraction (non-reducing sample buffer) and as an oligomer on an A11 blot; also called MLKL; source: endogenous, mouse substantia nigra tissue lysate) MDKLGQIIKLGQLIYEQCEKMKYCRKQCQRLGNRVHGLLQPLQRLQAQGKKNLPDDITAALGRFDEVLKEANQQIEKFSKKSHIWKFVSVGNDKILFHEVNEKLRDVWEELLLLLQVYHWNTVSDVSQPASWQQEDRQDAEEDGNENMKVILMQLQISVEEINKTLKQCSLKPTQEIPQDLQIKEIPKEHLGPPWTKLKTSKMSTIYRGEYHRSPVTIKVFNNPQAESVGIVRFTFNDEIKTMKKFDSPNILRIFGICIDQTVKPPEFSIVMEYCELGTLRELLDREKDLTMSVRSLLVLRAARGLYRLHHSETLHRNISSSSFLVAGGYQVKLAGFELSKTQNSISRTAKSTKAERSSSTIYVSPERLKNPFCLYDIKAEIYSFGIVLWEIATGKIPFEGCDSKKIRELVAEDKKQEPVGQDCPELLREIINECRAHEPSQRPSVDGRSLSGRERILERLSAVEESTDKKV", "values": [{"measurement": "binding", "value": "binds"}]}]}
